Results taken from patent publication US20230407401A1.
No constants are given. Whether binding was seen depends on the method and setting. For part of these data: Binding seen in cells or lysates may run through a third protein. Some binding calls cover weakened binding; strength is not graded here.

By UniProt entry, the sequences of proteins in these tests, tags left out.
UniProt Q13547: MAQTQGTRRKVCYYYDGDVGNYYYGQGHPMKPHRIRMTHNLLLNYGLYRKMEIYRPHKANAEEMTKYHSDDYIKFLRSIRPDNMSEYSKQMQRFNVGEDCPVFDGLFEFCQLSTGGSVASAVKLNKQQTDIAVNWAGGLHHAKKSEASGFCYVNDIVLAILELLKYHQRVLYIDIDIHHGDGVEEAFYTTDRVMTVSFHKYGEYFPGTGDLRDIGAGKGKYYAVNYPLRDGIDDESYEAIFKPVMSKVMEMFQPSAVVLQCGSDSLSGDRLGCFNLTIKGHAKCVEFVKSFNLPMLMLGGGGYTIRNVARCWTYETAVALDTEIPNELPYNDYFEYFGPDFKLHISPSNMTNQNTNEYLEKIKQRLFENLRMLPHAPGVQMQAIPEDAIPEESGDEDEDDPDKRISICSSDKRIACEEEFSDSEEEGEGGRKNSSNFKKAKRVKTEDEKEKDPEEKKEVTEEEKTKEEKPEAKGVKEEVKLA
UniProt P84022: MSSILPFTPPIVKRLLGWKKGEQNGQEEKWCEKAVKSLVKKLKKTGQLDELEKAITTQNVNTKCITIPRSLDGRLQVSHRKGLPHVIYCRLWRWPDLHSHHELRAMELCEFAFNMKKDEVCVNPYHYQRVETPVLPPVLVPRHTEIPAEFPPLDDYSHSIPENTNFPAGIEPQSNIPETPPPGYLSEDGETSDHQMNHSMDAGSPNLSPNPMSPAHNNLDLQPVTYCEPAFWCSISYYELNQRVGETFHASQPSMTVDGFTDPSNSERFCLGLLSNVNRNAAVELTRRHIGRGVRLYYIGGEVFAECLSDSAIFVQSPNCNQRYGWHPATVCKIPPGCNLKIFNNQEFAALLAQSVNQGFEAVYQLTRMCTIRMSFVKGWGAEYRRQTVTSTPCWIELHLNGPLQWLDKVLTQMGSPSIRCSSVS
UniProt P54132: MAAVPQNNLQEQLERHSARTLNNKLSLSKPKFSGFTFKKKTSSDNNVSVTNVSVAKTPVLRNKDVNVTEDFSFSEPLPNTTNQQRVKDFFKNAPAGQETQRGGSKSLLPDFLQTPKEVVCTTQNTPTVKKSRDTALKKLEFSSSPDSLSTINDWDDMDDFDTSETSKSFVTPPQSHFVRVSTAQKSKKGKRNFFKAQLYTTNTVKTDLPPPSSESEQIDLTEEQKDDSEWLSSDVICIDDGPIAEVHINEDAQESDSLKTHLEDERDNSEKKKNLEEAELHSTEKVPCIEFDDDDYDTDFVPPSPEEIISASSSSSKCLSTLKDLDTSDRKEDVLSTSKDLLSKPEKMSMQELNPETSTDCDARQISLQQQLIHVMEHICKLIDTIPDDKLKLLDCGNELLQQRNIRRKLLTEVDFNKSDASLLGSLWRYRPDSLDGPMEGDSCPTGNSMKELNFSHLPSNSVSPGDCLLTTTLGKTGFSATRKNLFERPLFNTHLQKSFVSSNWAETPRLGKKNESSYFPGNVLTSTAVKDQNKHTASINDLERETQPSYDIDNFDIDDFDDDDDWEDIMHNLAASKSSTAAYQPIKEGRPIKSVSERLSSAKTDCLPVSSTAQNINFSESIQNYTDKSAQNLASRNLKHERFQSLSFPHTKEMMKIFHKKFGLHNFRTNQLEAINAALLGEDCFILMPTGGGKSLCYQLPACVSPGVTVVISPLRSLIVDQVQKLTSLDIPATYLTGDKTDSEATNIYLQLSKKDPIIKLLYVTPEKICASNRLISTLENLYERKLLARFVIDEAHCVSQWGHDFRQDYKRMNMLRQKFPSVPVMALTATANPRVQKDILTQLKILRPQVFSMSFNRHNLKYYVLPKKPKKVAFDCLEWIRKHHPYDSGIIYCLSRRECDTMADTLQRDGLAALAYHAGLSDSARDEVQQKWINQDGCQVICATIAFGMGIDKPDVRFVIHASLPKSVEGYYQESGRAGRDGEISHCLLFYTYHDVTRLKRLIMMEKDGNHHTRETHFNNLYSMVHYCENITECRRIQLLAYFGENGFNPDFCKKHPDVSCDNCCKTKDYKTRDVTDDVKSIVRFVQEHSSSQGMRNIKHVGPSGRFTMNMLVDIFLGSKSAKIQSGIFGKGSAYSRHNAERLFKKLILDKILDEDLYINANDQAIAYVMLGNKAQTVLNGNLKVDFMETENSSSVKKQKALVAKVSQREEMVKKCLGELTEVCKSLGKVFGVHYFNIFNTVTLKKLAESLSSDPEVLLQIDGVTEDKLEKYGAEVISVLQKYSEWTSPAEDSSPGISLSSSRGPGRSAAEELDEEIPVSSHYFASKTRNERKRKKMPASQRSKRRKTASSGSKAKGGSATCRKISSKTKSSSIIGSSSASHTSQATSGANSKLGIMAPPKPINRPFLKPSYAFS

What was measured:
HDAC1 [1] = molecular target: HDAC1 (UniProt Q13547); experiment: co-immunoprecipitation from HCT116 lysates, western blot
SMAD3 [2] = molecular target: SMAD3 (UniProt P84022); experiment: as above
HDAC1 [3] = molecular target: HDAC1 (UniProt Q13547); experiment: co-immunoprecipitation (anti-BLM) from transfected HCT116 cells, western blot
SMAD3 [4] = molecular target: SMAD3 (UniProt P84022); experiment: as above
GST HDAC1 (WT) [5] = molecular target: GST HDAC1 (WT) (UniProt Q13547); experiment: in vitro GST pull-down of 35S-labelled BLM, autoradiography
GST HDAC1 (WT) [6] = molecular target: GST HDAC1 (WT) (UniProt Q13547); experiment: in vitro interaction of S35 methionine radiolabelled BLM with bound GST HDAC1, autoradiography

Measured: binding

BLM helicase, in HCT116 cells / immunoprecipitated BLM (from UniProt P54132 1-1417) (enzyme)
binds: HDAC1 [1] | SMAD3 [2] | HDAC1 [3] | SMAD3 [4]

S35 methionine radiolabelled BLM (in vitro translated) (from UniProt P54132 1-1417) (enzyme)
binds: GST HDAC1 (WT) [5] | GST HDAC1 (WT) [6]
